Out of some 390,000 compounds screened, about 4,000 (1%) were called active. The shares of active, inactive and inconclusive entries below differ from those in the screen. The call rests on the fitted dose curve; in most records, active means well fitted inhibition curve with a large enough effect; inconclusive means small, poorly fitted or top-dose-only effect, or another doubt; inactive means no such curve, though single readings can be large or run the other way. A potency beside an inconclusive call is a rough fit, not a confirmed value.
Each compound was assayed against DNA polymerase iota (Homo sapiens) (UniProt Q9UNA4) (assay: qHTS for Inhibitors of Polymerase Iota). Conditions: Pol iota fluorescent replication assay, 10 min; series mostly up to 115 µM.
Method in brief: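 Fluorescent replication assay read twice, at 0 min and 10 min after adding 50 nM (final) substrate. Enzyme (10 nM) and compounds were first incubated 15 min at room temperature; enzyme-free buffer wells were negative controls.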
Potency means the concentration at half of the fitted maximal effect.

By UniProt entry, the sequences of proteins in these tests, tags left out. Where a name states a change or a piece, a line headed by the entry shows the natural chain unless it says otherwise.
UniProt Q9UNA4: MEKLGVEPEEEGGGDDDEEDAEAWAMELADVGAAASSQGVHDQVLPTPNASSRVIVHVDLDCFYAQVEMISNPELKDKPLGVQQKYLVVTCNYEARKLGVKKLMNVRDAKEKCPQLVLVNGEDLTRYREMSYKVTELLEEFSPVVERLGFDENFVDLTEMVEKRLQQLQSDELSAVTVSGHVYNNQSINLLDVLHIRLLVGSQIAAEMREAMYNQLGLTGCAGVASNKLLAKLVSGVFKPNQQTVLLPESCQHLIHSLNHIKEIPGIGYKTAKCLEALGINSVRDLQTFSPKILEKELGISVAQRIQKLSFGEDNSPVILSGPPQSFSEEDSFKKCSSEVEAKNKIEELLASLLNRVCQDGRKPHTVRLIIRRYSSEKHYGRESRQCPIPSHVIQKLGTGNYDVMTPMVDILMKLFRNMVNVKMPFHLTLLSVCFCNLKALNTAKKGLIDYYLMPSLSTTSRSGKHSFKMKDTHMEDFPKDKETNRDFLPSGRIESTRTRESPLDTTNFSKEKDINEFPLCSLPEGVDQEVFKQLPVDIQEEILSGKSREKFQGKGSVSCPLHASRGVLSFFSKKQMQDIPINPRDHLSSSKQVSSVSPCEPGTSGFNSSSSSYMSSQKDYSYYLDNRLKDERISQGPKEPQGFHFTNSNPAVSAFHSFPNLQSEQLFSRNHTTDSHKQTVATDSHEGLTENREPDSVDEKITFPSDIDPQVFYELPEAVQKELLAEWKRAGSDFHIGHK

Row | SMILES | Potency
1 | O=C(/C=C/c1ccc(NC(=O)c2ccccc2-c2ccccc2C(=O)O)cc1)c1ccccc1 | inconclusive: 11.2 µM [inhibitor, partial curve, poor fit]
2 | CCN(C[C@H]1N[C@@](CC)(C(=O)OC)[C@H]2C(=O)N(C)C(=O)[C@@H]12)C(=O)Nc1ccccc1 | inconclusive: 14.1 µM [inhibitor, partial curve, poor fit]
3 | C/C=C/c1ccc(OCC(=O)OCC(=O)NC2CC2)c(OC)c1 | inconclusive: 89.1 µM [inhibitor, single point]
4 | CCCOc1ccc(/C(O)=C2/C(=O)C(=O)N(CCCOC)C2c2cccnc2)cc1 (stereo unspecified) | inconclusive: 12.6 µM [inhibitor, partial curve, poor fit]
5 | COc1cccc(/C=C2\CC(C)Cc3c2nc2ccccc2c3C(=O)O)c1OC (stereo unspecified) | inconclusive: 31.6 µM [inhibitor, partial curve, poor fit]
6 | CN(C)C1=NCCN1CCCCc1ccccc1 | inconclusive: 39.8 µM [inhibitor, single point]
7 | CCOc1ccc(NC(=O)N2CCC(CN3CCC(C)CC3)CC2)cc1 | inconclusive: 100 µM [inhibitor, partial curve, poor fit]
8 | Cc1cccn2c(=O)c(/C=C(\C#N)S(=O)(=O)c3ccccc3)c(N3CCN(c4ccccc4)CC3)nc12 | inconclusive: 89.1 µM [inhibitor, single point]
9 | COC(=O)CCC(=O)OC1(C)C(=O)C=C2C=C(C3CC3)N(C3CCCCC3)C=C2C1=O (stereo unspecified) | inconclusive: 35.5 µM [inhibitor, partial curve, poor fit]
10 | Cc1cc(C)cc(-c2nnc(SCC(=O)Nc3cc(C)on3)o2)c1 | inconclusive: 20 µM [inhibitor, partial curve, poor fit]
11 | CCOC(=O)C(Cc1ccccc1)NC(=O)CCCC(=O)c1ccccc1 (stereo unspecified) | inconclusive: 20 µM [inhibitor, partial curve]
12 | COc1ccccc1NC(=O)c1cccc(S(=O)(=O)N2CCOCC2)c1 | inactive
13 | CCn1nnc2cc(C(=O)O)ccc21 | inactive
14 | CCC(CO)Oc1cc(NCc2ccccc2OC)c2ncn(C(C)C)c2c1 (stereo unspecified) | inconclusive: 15.8 µM [inhibitor, partial curve, poor fit]
15 | O=C(Oc1cccc(/C=N/Nc2nc(N3CCOCC3)nc(N3CCOCC3)n2)c1)c1ccco1 | inconclusive: 39.8 µM [inhibitor, single point]
16 | CCOC(=O)/C=C/C(=O)OCC(=O)Nc1ccc(C)cc1 | inconclusive: 25.1 µM [inhibitor, full curve]

Sorted by number of heavy atoms (ascending): part of the list above.
Row | SMILES | Potency
11 | CCOC(=O)C(Cc1ccccc1)NC(=O)CCCC(=O)c1ccccc1 (stereo unspecified) | inconclusive: 20 µM [inhibitor, partial curve]
5 | COc1cccc(/C=C2\CC(C)Cc3c2nc2ccccc2c3C(=O)O)c1OC (stereo unspecified) | inconclusive: 31.6 µM [inhibitor, partial curve, poor fit]
2 | CCN(C[C@H]1N[C@@](CC)(C(=O)OC)[C@H]2C(=O)N(C)C(=O)[C@@H]12)C(=O)Nc1ccccc1 | inconclusive: 14.1 µM [inhibitor, partial curve, poor fit]

— PubChem BioAssay AID588590 (National Center for Advancing Translational Sciences (NCATS), 2011)
